# Assay results taken from PubChem BioAssay AID662 (National Center for Advancing Translational Sciences (NCATS), 2007).
# “And” between values parts separate entries of the source, which are not always exact repeats. Equal values may be shown once. The list shows a part of the results. These are further read-outs of the screen, such as a control signal, another cell line or another target. No call is given for them. The list favours compounds with an active or inconclusive main result. The note in brackets gives the kind of curve behind each potency; many fits are weak.
# Test: Cell signaling CRE-BLA (Fsk stim)
# Conditions: CHO CRE-bla reporter (cAMP response element driving beta-lactamase), forskolin EC10, beta-lactamase ratio; measured here: 460 nm blue channel
# Summary of the method: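 qHTS titration format; CRE-bla CHO reporter; stimulus EC10 NKH 477, a water-soluble forskolin. Read: CCF4 460/530 nm ratio. Potency expressed as AC50 for activators or inhibitors.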
row,Structure (SMILES),AC50
1,O=C1c2ccccc2NC(c2ccc(F)cc2)N1Cc1ccco1 (stereo unspecified),"3.98 µM [falling, single point]"
2,COC(=O)C1=C(C)NC(C)=C(C(=O)OCCCN2CCC(c3ccccc3)(c3ccccc3)CC2)[C@H]1c1cccc([N+](=O)[O-])c1,"15.8 µM [falling, partial curve] and 3.98 µM [falling, full curve, poor fit]"
3,CN(Cc1ccccc1)C(=O)CN(C1CCCCC1)S(C)(=O)=O,"3.98 µM [rising, partial curve]"
4,CC(=O)Nc1ccc2nc(-c3cccs3)[nH]c2c1,"0.00398 µM [falling, full curve, poor fit]"
5,COCCn1c(=O)c(-c2cccs2)nc2cnc(N3CCOCC3)nc21,"2 µM [rising, full curve]"
6,CC(C)Sc1nc2c(c(=O)[nH]c(=O)n2C)n1CCc1ccccc1,"2.51 µM [rising, partial curve]"
7,COc1ccc(-c2cc(C(=O)NCc3cccnc3)no2)cc1OC,"12.6 µM [rising, single point]"
8,O=C(Nc1ccc(Cl)cn1)C1CCCN1S(=O)(=O)c1ccc(Cl)cc1 (stereo unspecified),"3.16 µM [falling, full curve]"
9,Cc1ccccc1C(=O)NC1CCN(Cc2nnnn2Cc2ccccc2)CC1,"0.398 µM [falling, full curve]"
10,NCCC[C@@H](CC(=O)N[C@@H]1CCCC[C@H]1C(=O)N[C@H](CC(=O)N[C@@H](CCC(=O)O)CC(=O)O)Cc1ccccc1)NC(=O)C[C@H](CO)NC(=O)[C@@H]1CCCC[C@H]1N,"7.94 µM [falling, partial curve, poor fit]"
11,CCCCOc1ccc(/C(O)=C2/C(=O)C(=O)N(CCCOC)C2c2ccncc2)cc1C (stereo unspecified),"0.00316 µM [falling, full curve, poor fit]"
12,CCN(c1ccccc1)c1cc(C)nc2nc(C)nn12,"12.6 µM [rising, partial curve]"
13,O=C(CSc1ncc(-c2ccccc2)nn1)NCc1ccco1,"10 µM [falling, partial curve, poor fit]"
14,COc1ccc(OC)c(NC(=O)NC2(C(F)(F)F)Oc3ccccc3O2)c1,"25.1 µM [falling, single point]"
15,CN(C)C1NC(=O)c2cc(-c3ccccc3)sc2N1 (stereo unspecified),"0.0631 µM [falling, partial curve, poor fit]"
16,CCc1ccccc1NC(=O)c1cnc2n(c1=O)CCS2,"10 µM [rising, single point]"
17,COc1ccc(N(CC(=O)NCCSc2ccccn2)S(C)(=O)=O)cc1Cl,"12.6 µM [rising, partial curve]"
18,CCCOc1ccc([C@@H]2C3CN(C(=O)OCC)CC=C3C(C#N)=C(N)C2(C#N)C#N)cc1OC (stereo partly specified),"12.6 µM [rising, partial curve]"
19,COc1ccccc1CCn1c(=O)c(-c2cn(C)c3ccccc23)nc2cncnc21,"0.398 µM [rising, full curve]"
20,CCn1c(SCC(=O)Nc2cccc(C)c2)nc2c(c1=O)SC(C)C2 (stereo unspecified),"10 µM [rising, single point]"
21,COc1ccc(OC)c(-c2cc(C(=O)NCc3cccs3)no2)c1,"3.16 µM [rising, full curve]"
22,CC1(C)Cc2ccccc2-c2nnc(SCC(=O)Nc3nc4ccccc4s3)n21,"3.98 µM [rising, partial curve]"

row,Structure (SMILES),AC50
1,Cc1ccc(C2c3sc(=O)[nH]c3SC3C(=O)NC(=O)C32)cc1 (stereo unspecified),"1.58 µM [falling, full curve]"
2,CCN(C)c1ccc(/C=N\n2nnnc2N)cc1,"12.6 µM [rising, partial curve]"
3,CCOC(=O)N1CCC(NC(=O)Cc2cn(C)c3ccccc23)CC1,"0.631 µM [falling, full curve]"
4,CCOC(=O)C1Cc2c([nH]c3ccccc23)CN1 (stereo unspecified),"10 µM [falling, partial curve]"
5,CCOC(=O)c1c(NC(=O)c2ccc(-n3cnnn3)cc2)sc2c1CCCC2,"2.51 µM [rising, single point]"
6,CSc1nc2nc(C)cc(-c3ccccc3)n2n1,"25.1 µM [rising, partial curve]"
7,CC(C)(C)n1nc2c(c1NC(=O)COc1ccc(Cl)cc1)CSC2,"2.51 µM [falling, full curve, poor fit]"
8,CCCCOc1ccc(C(=O)NCc2ccco2)cc1,"0.316 µM [falling, partial curve]"
9,CCOC(=O)C1CCCN(C(=O)C2CC(=O)N(c3ccc(C)cc3)C2)C1 (stereo unspecified),"20 µM [falling, single point]"
10,CN(CC(=O)N1CC=C(c2ccccc2)CC1)S(=O)(=O)c1cnc[nH]1,"0.0631 µM [falling, partial curve]"
11,COc1cccc(NC(=O)CSc2ccc3nnc(-c4ccncc4)n3n2)c1,"12.6 µM [rising, partial curve]"
12,CCC1SC2=NCCN2C1(O)c1ccc(Cl)cc1 (stereo unspecified),"31.6 µM [falling, partial curve, poor fit]"
13,COc1ccc(NC(=O)c2sc(SC)nc2N)cc1,"10 µM [rising, partial curve]"
14,Brc1ccc(-c2nn3c(-c4ccccn4)nnc3s2)o1,"10 µM [rising, single point]"
15,CCCc1cc2c(n1CCc1ccc(Cl)cc1)C(C)C1CN(C(=O)c3ccccc3)C(C)(C(=O)OC)C21 (stereo unspecified),"5.01 µM [rising, partial curve]"
16,CCCCn1c(SCC(=O)c2cc(OC)ccc2OC)nc2cc(S(N)(=O)=O)ccc21,"10 µM [rising, single point]"
17,COC(=O)c1ccccc1NC(=O)CSc1ccccc1,"0.00316 µM [falling, full curve, poor fit]"
18,COc1ccccc1CNC(=O)c1cc2c(=O)n(C)c3ccccc3c2n1C,"3.16 µM [rising, single point]"
19,CNC(=O)c1cc2ccc(OC)cc2oc1=O,"12.6 µM [rising, single point]"
20,COc1cccc(C(=O)Nc2ccc3nc(N4CCOCC4)cc(C)c3c2)c1,"10 µM [rising, single point]"
21,CCOC(=O)CN1C(=O)C(C)(C)Oc2ccc(C(=O)Nc3ccccc3OC)cc21,"0.0316 µM [rising, full curve, poor fit]"
22,CC1=C(C(=O)OC(C)C)C(C2CC=CCC2)NC(=O)N1 (stereo unspecified),"0.00398 µM [falling, full curve, poor fit]"

# Not a retest: entries from further up.
row,Structure (SMILES),AC50
7,CC(C)(C)n1nc2c(c1NC(=O)COc1ccc(Cl)cc1)CSC2,"2.51 µM [falling, full curve, poor fit]"
8,CCCCOc1ccc(C(=O)NCc2ccco2)cc1,"0.316 µM [falling, partial curve]"
9,CCOC(=O)C1CCCN(C(=O)C2CC(=O)N(c3ccc(C)cc3)C2)C1 (stereo unspecified),"20 µM [falling, single point]"

# Following part

row,Structure (SMILES),AC50
1,CCOC(=O)c1ccc2ncc(C(=O)OCC)c(NCCCN3CCOCC3)c2c1,"10 µM [rising, partial curve]"
2,CN(C)c1ncc2nc(-c3cccs3)c(=O)n(C[C@H]3CCCO3)c2n1,"2 µM [rising, partial curve]"
3,CCn1cc(C(=O)NCc2ccc(OC)cc2OC)c(=O)c2ccc(C)nc21,"1.58 µM [rising, full curve, poor fit]"
4,COc1cccc(Cn2c(=O)c(CCc3ccccc3)nc3cnc(OC)nc32)c1,"10 µM [rising, partial curve]"
5,COc1ccccc1CNc1cc(-c2ccccc2Cl)ncn1,"10 µM [rising, single point]"
6,CCCCCNC(=O)c1ccc2c(=O)n(CC3CCCO3)c(=O)[nH]c2c1 (stereo unspecified),"0.794 µM [rising, partial curve]"
7,C=CCn1c(N)c(C(=O)OCC(C)C)c2nc3ccccc3nc21,"10 µM [rising, partial curve]"
8,COCCCNC(=O)CCCn1c(=O)[nH]c2ccccc2c1=O,"25.1 µM [falling, single point]"
9,CC(=O)COc1ccc2c3c(c(=O)oc2c1C)CCCCC3,"1 µM [rising, partial curve]"
10,CCCn1c(=O)c2c(ncn2C)n(CCC)c1=O,"15.8 µM [rising, partial curve]"
11,Cc1c(C(=O)OCc2ccccc2)[nH]c2c1C(=O)CC(c1ccco1)C2 (stereo unspecified),"0.794 µM [rising, full curve]"
12,COc1ccc(OC)c(C2CC(=O)C3=C(C2)NC(=O)CC3c2ccc(O)c(OC)c2)c1 (stereo unspecified),"25.1 µM [rising, single point]"
13,c1ccc(N2CCOCC2)c(Nc2nc3ccccc3n3cnnc23)c1,"5.01 µM [rising, partial curve]"
14,CN1CCN(c2nc(NCCOC34CC5CC(CC(C5)C3)C4)nc(OCC(F)(F)F)n2)CC1,"10 µM [rising, partial curve]"
15,COc1cc(O)c2c(=O)cc(-c3ccccc3)oc2c1,"25.1 µM [falling, partial curve, poor fit]"
16,CC(C)[C@H](NC(=O)Nc1ccc2c(c1)OCCO2)C(=O)O,"2.51 µM [falling, partial curve]"
17,COc1cccc(Cn2c(=O)c(-c3ccc(F)cc3)nc3cnc(N4CCNCC4)nc32)c1,"1.58 µM [rising, full curve]"
18,CCOc1cccc(NC(=O)C2CC(=O)N(C)C(=Nc3ccccc3)S2)c1 (stereo unspecified),"25.1 µM [rising, single point]"
19,O=C(NCCN1CCc2ccccc2C1)C1CCN(S(=O)(=O)N2CCC3(CC2)OCCO3)CC1,"1 µM [falling, single point]"
20,CN1CCN(c2nc3cc(C(F)(F)F)ccc3n3cccc23)CC1,"25.1 µM [rising, partial curve]"
21,COc1ccc(-c2nn(C)c3sc(C(=O)NCc4ccco4)cc23)cc1OC,"3.16 µM [rising, single point]"
22,Nc1c(S(=O)(=O)c2cccc(Cl)c2)c2nc3ccccc3nc2n1/N=C/c1ccc(O)c(O)c1,"12.6 µM [falling, partial curve]"
